Reference: US20240199758A1, “METHOD FOR ALLOWING IMMUNE CELLS INFILTRATION IN TUMORS” (Alethia Biotherapeutics Inc., priority 2021, published 2024)
Some of these results come from one statement about several compounds together.

Test system: 4T1 lung metastases
Assay: Flow cytometry immunophenotyping of lymphocytes from 4T1 lung metastases
Format: in vivo, Balb/c mice
Settings: both groups (15 and 25)
Experimental: Balb/c mice were orthotopically implanted with 5×10^5 4T1 cells in the 4′ mammary fat pad. Animals received intraperitoneal (IP) AB-16B5 (murine 16B5) 10 mg/kg twice weekly in combination with IP docetaxel 10 mg/kg weekly (Group 15: animals 1501, 1502 and 1503) or IP AB-16B5 10 mg/kg twice weekly (Group 25: […]). The primary tumor was surgically removed at Day 16 post-implantation. The animals were sacrificed at Day 36 and the lungs were excised and each visible lung metastasis was carefully dissected. Each visible metastatic nodule, if any, was excised and processed for a rapid expansion of tumor infiltrating lymphocyte protocol. The metastatic nodules were sectioned into small pieces of 2-3 mm edge that were individually grown in 24 well plates containing culture medium supplemented with FBS, IL2, IL7, ITS (1,000 U/mL IL2, 2.0 ng/mL IL7 and 1× insulin—transferrin—selenium cocktail (Gibco 41400-045)).
The lymphocytes were stimulated with anti-CD3 and anti-CD28 monoclonal antibodies. Lymphocytes from each donor animal were pooled and processed for flow cytometry analysis with antibodies against CD45 (lymphocyte common antigen), CD3, CD4, CD8 and CD19 (B-cell biomarker) (FIG. 4A and FIG. 4B). The resulting single cell preparations were initially selected on their size to select those corresponding to immune cells. […]

B1: murine 16B5: murine anti-clusterin (anti-sCLU) monoclonal antibody 16B5 used in the mouse studies; VL SEQ ID NO:7, VH SEQ ID NO:8 (antibody, V domains shown)
VH: EVQLQQSGAELVKPGASVRLSCTTSGFNIKDIYMHWVKQRPEQGLEWIGRIDPAYGNTKYDPKFQGKATITADTSSNTAYLQLSSLTSEDTAVYYCARRYDTAMDYWGQGTSVTVSS
VL: DIVMSQSPSSLAVSAGEKVTMSCKSSQSLLNSRTRKNYLAWYQQKPGQSPKLLIYWASTRESGVPDRFTGSGSGTDFTLTISSVQAEDLAVYYCKQSYNLWTFGGGTKLEFK
modifications: Murine 16B5 VH; Murine 16B5 VL
cell viability of CD45+ cells: 80-90%
